Reference: article PMC11642917

Protein sequences, listed by entry. Tags and fused reporters are not part of them.
UniProt Q17551: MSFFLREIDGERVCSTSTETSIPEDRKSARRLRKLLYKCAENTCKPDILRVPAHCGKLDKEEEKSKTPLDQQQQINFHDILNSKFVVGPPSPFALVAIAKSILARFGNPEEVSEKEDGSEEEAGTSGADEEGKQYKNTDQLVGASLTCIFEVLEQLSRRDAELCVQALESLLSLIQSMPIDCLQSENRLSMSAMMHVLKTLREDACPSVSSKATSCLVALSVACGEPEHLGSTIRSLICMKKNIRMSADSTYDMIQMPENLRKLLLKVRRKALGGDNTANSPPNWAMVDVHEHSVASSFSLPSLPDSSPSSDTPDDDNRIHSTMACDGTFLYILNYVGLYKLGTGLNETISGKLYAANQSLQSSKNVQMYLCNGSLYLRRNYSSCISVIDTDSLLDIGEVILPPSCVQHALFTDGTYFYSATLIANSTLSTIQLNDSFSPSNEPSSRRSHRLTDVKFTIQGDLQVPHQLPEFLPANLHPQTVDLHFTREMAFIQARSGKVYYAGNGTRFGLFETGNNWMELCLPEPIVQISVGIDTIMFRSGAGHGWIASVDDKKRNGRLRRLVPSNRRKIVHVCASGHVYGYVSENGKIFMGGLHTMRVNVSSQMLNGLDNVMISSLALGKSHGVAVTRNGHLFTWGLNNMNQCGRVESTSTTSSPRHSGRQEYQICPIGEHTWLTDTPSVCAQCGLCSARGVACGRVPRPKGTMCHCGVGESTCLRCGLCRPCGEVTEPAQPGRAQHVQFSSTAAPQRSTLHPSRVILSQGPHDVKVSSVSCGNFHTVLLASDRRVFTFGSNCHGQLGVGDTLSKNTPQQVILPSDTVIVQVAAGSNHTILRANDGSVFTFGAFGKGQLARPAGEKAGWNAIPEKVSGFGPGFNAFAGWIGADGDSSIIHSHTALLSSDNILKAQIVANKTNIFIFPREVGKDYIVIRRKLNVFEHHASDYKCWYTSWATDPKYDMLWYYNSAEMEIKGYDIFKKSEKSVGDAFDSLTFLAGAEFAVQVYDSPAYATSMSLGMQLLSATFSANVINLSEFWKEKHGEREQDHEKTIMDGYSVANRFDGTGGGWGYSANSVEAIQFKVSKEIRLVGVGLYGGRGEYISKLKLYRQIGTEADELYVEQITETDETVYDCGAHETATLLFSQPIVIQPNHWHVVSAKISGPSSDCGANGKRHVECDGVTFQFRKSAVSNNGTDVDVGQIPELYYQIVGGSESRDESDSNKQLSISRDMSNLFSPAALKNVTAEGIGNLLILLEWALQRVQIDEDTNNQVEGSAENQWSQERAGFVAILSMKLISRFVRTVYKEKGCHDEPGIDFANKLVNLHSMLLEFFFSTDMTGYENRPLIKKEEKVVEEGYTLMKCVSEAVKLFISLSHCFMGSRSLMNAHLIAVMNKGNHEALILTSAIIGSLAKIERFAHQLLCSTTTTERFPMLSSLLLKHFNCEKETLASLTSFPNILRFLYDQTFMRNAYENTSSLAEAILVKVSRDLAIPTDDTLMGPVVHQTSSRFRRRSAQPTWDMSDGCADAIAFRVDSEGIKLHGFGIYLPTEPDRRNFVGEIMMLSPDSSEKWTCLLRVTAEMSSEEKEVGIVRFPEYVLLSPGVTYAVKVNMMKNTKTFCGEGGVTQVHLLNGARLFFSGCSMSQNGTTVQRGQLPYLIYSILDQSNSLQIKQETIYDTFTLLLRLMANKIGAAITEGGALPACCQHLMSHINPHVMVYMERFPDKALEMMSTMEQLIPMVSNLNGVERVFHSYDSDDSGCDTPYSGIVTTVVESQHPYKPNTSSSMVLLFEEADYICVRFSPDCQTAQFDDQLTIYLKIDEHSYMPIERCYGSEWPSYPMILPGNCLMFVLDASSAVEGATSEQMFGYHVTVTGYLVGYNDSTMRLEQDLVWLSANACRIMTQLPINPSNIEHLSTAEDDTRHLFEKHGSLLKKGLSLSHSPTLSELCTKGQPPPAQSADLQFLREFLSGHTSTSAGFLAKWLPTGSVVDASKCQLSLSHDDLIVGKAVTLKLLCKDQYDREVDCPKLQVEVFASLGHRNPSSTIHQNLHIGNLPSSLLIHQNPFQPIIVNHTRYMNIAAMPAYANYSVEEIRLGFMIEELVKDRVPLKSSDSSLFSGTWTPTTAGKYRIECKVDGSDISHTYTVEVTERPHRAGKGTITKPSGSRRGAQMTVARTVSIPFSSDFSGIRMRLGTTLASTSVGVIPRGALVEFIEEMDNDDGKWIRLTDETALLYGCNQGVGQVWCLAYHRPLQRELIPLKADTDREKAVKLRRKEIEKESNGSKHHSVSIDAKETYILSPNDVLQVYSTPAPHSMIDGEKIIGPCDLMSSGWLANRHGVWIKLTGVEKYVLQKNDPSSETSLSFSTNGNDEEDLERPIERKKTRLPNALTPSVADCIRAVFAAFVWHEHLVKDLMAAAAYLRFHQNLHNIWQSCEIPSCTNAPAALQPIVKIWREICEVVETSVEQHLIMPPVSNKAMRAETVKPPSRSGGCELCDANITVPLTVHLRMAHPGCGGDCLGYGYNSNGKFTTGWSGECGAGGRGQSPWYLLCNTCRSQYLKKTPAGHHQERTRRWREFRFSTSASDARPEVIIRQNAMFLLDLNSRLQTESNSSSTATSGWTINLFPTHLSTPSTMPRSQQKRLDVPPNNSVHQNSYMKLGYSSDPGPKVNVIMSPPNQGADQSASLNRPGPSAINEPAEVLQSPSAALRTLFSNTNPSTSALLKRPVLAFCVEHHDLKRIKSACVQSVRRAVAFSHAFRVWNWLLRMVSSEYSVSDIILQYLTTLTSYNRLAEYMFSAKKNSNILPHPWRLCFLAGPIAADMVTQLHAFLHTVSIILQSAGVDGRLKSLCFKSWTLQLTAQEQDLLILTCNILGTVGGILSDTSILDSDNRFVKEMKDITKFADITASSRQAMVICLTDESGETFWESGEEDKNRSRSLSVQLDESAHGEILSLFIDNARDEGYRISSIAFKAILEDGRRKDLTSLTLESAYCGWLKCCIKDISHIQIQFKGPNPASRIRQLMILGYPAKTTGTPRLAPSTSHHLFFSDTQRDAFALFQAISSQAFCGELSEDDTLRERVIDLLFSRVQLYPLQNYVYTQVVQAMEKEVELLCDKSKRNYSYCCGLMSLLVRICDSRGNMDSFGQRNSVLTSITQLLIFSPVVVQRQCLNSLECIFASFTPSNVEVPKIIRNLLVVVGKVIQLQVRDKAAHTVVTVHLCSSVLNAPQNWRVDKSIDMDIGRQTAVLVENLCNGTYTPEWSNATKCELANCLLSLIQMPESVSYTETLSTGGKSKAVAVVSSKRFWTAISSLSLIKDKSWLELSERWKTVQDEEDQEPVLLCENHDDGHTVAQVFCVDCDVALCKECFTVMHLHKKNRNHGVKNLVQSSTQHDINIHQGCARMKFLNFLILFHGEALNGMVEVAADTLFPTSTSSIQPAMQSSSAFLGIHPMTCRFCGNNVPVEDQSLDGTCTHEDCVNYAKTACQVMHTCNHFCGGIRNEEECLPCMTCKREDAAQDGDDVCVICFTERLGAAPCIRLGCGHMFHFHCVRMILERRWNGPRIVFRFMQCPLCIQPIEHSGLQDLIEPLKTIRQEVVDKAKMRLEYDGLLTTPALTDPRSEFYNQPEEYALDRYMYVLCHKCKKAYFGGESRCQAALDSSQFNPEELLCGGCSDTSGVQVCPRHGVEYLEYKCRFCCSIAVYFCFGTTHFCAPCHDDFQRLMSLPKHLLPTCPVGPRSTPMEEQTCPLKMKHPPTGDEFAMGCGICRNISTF

Experiments:
[1] = biological target: GS::RPM-1 (C. elegans) (UniProt Q17551); experiment: affinity purification with mass spectrometry; GS-tagged RPM-1 bait captured on IgG-coupled Dynabeads from whole-animal lysates of mixed-stage C. elegans (80 mg total protein, 500 uL beads, 4°C, 4 hours; various detergent conditions); SDS-PAGE, in-gel trypsin digest, LC-MS/MS; GS::GFP negative control; 7 independent experiments; hit = 1.5x or greater total spectra over GS::GFP
[2] = biological target: GS::RPM-1 ligase-dead (LD) (C. elegans) (UniProt Q17551); experiment: as above

B1: PPM-2 (protein, UniProt P49596 1-356)
chain: MGQTLSEPVTKKESASCANENYLVGSSCMQGWRVDMEDAHTHLLSLPDDPKCAFFAVYDGHGGSKVSQYSGINLHKKVVAQKEFSEGNMKEAIEKGFLELDQQMRVDEETKDDVSGTTAVVVLIKEGDVYCGNAGDSRAVSSVVGEARPLSFDHKPSHETEARRIIAAGGWVEFNRVNGNLALSRALGDFAFKNCDTKPAEEQIVTAFPDVITDKLTPDHEFIVLACDGIWDVMTNQEVVDFVREKLAEKRDPQSICEELLTRCLAPDCQMGGLGCDNMTVVLVGLLHGQSPDTLFTKCARPAVFTGVNNEDGDQNQIQQDISRVINNFDGEQRVNAANQEEEEDDNEPAPANFQV
binding [1]: binds | binding [2]: binds

B3: RAE-1 (protein, UniProt Q93454 1-373)
chain: MFGSSGFGNKSMFGGSNISTSTTTPAANTTQNDDFLVDGAPEDTIQVIKFSPTPQDKPMLACGSWDGTIRVWMFNDANTFEGKAQQNIPAPILDIAWIEDSSKIFIACADKEARLWDLASNQVAVVGTHDGPVKTCHWINGNNYQCLMTGSFDKTLRFWDMKNLPNQTQMAQIQLPERVYAADVLYPMAVVALANKHIKVYNLENGPTEVKDIESQLKFQIRCISIFKDKSNQNPAGFALGSIEGRVAVQYVDVANPKDNFTFKCHRSAELVNGFQEIYAVNDICFHPQHGTLVTIGSDGRYSMWDKDARTKLKTSEPHPMPLTCCDVHSSGAFLVYALGYDWSRGHEGNTQPGSKIVIHKCIEDMKPRPTKK
binding [1]: binds | binding [2]: binds

B4: UNC-112 (protein, UniProt Q18685 1-720)
chain: MAHLVEGTSIIDGKWQLPILVTDLNIQRSISVLGNLNVGGLMLELVSECDVERDWSDHALWWPEKRRWLQHTRSTLDQNGITAETQLEFTPMHKEARIQLPDMQMIDARVDFSVNSFKATKKLCRDLGIRYSEELSLKRYIPPEDLRRGTSDADNMNGPLSMRPGEESVGPMTLRKAAPIFASQSNLDMRRRGQSPALSQSGHIFNAHEMGTLPRHGTLPRGVSPSPGAYNDTMRRTPIMPSISFSEGLENEQFDDALIHSPRLAPSRDTPVFRPQNYVEKAAINRGWLDSSRSLMEQGIFEGDIILLRFKFMNFFDLNPKYDPVRINQLYEQAKWSILLDEFDHTEEEATLFAALQLQATLQRDSPEPEENNKDDVDILLDELEQNLDAAALNRRSDLTQVPELADYLKYMKPKKLAAFKGFKRAFFSFRDLYLSYHQSSSDVNSAPLGHFSLKGCEVSQDVSVGQQKYHIKLLLPTAEGMIDFILKCDSEHQYARWMAACRLASRGKSMADSSYQQEVESIKNLLKMQSGNGNENGNSNTASRKAAAVKLPNDFNVDEYISSKYVRRARSKQQIQQRVSDAHGNVRQLTATEAKLQYIRAWQALPEHGIHYFIVRFRNARKAELVAVAVNRLAKLNMDNGESLKTWRFANMKKWHVNWEIRHLKIQFEDEDIEFKPLSADCKVVHEFIGGYIFLSMRSKEHSQNLDEELFHKLTGGWA
binding [1]: binds | binding [2]: binds

B6: UNC-51 (protein, UniProt Q23023 1-856)
chain: MEQFDGFEYSKRDLLGHGAFAIVYRGRYVDRTDVPVAIKAIAKKNISKSKNLLTKEIKILKELSSLKHENLVGLLKCTETPTHVYLVMEFCNGGDLADYLQQKTTLNEDTIQHFVVQIAHALEAINKKGIVHRDLKPQNILLCNNSRTQNPHFTDIVIKLADFGFARFLNDGVMAATLCGSPMYMAPEVIMSMQYDAKADLWSIGTILFQCLTGKAPFVAQTPPQLKAYYEKTRELRPNIPEWCSPNLRDLLLRLLKRNAKDRISFEDFFNHPFLTSPLLPSPSKRILESARSPLLANRRIITPQSSLPVPKRAGSTKLDSPTPVRRIGESPRVQRRVITPGMPSPVPGAPMQESTDFTFLPPRQESSPVKQVQVHTNVSPSLTTCKPVPVPSQRLTYQKMEERLAAARKTAVPSSSSPTGSAVSAQHQHQHQQQQEPASSPVVQRIERPDQLPRRTTLQDPNAHDIERMTMPNPTFVVCGSSTKPSPNNANRVRRSTITSPADTQDMVAADQMLSNLDPTTTTTTIPKSATTANIQGIPRGARDRSVTSPPQPTIHENEPLDNAKYQQTDVNNSPTAPTEPFIIKNQTTCSTSSTSSSVVEEEEAMSLPFASGSHLAAGFKKTPAEVPMDHGALPPALDQEIVLGEEHKQILAKLRFVAELVDTLIHVAEQKDNPLASAMASRRQLLTTGTSTTNTSSPYRRAEQLVVYVRALHMLSSALLLAQTNVANRVLHPSVAVQQVLNQLNDKYHQCLVRSQELASLGLPGQDPAMAVISAERIMYRHAIELCQAAALDELFGNPQLCSQRYQTAYMMLHTLAEQVNCDQDKTVLTRYKVAVEKRLRILERQGFVAAVNT
binding [2]: binds

Next, values leading:

binding [1]: binds | binding [2]: binds
B2: GLO-4 (protein, UniProt Q5DX34 1-1386)
chain: MFFKRSTNSRKTSANSSSDTSTSSESLLLPLLNNTKAGARSQKGSVHRQSGKKARRKMMENPYVCSLELDELSADDSIIDYSVFSDDSFLLILLLTSKGDVQAYLETSRDTKPRKNVVNIKTACSLNVSPVTVCIGSQAAFAIFGLADGNLLVTPIRLLIDVTWGGSSWATTTVIDLSLPTVDPCLATPTCTKCFVSNFPPCTMAVVANKAGNILLVDLHLRKCVSELKAPQSLHQIDILLDENSIELLVTGFTGAQWIIPIERSGKGFREVLTTCVPSDLTVLEPATMQFFAADSCGVVALDTTESIVEVYNTFHSLAHSSKRTFKVPPETWMVHAGDNMLFTVSNDNEIRSALHFGFMSSRLEYTLVRTSTNWRPLGIVAMPSRPHKLAGIFVVNERGLVRVEQSTALNLTKIASEFFFRLSPLQLNSKSVAQVANACRIDTAEFQSALIPNLLSTRKNRQLTNKELSQIYSIAKAINLSMSDLLKAFENESIGEQLLPEVLNTIQTNPAKHDNLMQRVVEMFVKRSLSAEGNMDKIREYDAELSNFLARHEHLHKGSVDCAKAGMWKCTQTLVRRDVHETKSIDTSTEVLLYIIKNRLQIWNEANSTDRLQIMSLVCHLDWSKLADADGARVCAILSAWQRDISLPSYHEMCLRIAITNSDRFPRPCQILSLVSSIHILSEKKISNHANLPNFLPLAGGNNCGATITEDDRLMIWGNFTNAQQRMEMPQMNAKSKRSDSVTNGAPTLPPPAPKPEQHLPRVLEYPGGRPRAIACGAEHILVLSSSGQLSAWGGNRFGQCGVGHSFRIANLHQVDGDWPAIEKIACGQFHSAFICSDGSLWTFGWGVWGQLGHGGRNNSNQLVPTRVNGLICKVTQIACGRAHTVVLTDTGRVLVCGSGSYGQMGVDDDIKKVFAFTPLPLGPLRVRDIATHYYHSICITEDNRVFEWGRNPQELKMRMFVMKKIRSAQLKNTEDPSSPSPSTNGSTPRVNLNLPAEIPREDLGLREVKHFLDGNIVSVACGLSHSALITSEGTLYTWGKGLDYQLGHGNKNERMEPHQVFEPNGAKWVNVSLGNNHTIASTDDGSVFAWGKNDFGQCGVLTKKNGNSADVTKKFFFQARDGRRFMPNVDESQFVQKPGLIPDVRVRNLNEDGNEGVDKEEIVDRLKASDVNVVQAVSKHLYSPIEGKCNGSIIEDEPRNGKIQKQNKYDGEDGPLCTTTALVHLIAGDVKRAIRMIEWLKTDSSTCEKSLMVLSSLVWEVMANHEDVQSREALSAAFRHVPMSDSMRKGKQIAQLWPAVWNDERVQSSLSIDEKIAMLDGFTSASKPVSCPTIPSSSLEVSSKIRVYAQCAHAEPAAVGSPPECSTCLDEWTEKVRHTLGTQL

binding [1]: binds | binding [2]: binds
B5: FSN-1 (protein, UniProt Q18223 1-332)
chain: MAENDGETIVPDEQCNLTASTPMKSSGLEQVESPKERKTSMVECDDEGNPSSGTPDESPKQLTPHSIPPRRRRSPRRPEVSASRLPLKVLNQIFQYLPLKDLRSAMLTCHSWNNALSMEDSDIWQYLLGKKLPEAAVSDPFLLAELGSAKKKLRAWYFAWNTSDISRNNYIRTNGFTVHRQPVAQSTDGVRGKRGISKGVHAFDITWDGPLGTVAVVGIATKHAALHCVGYVALLGSDDQSWGWNLVDNVLMHNGAQLGVYPKMNNPPKYEVGDKIRLIIDCDTHVAYFERNSEFLGIAFNHIPPLRLYPAVCAVYGNTEVTMVYVGSPQMG

Results are given in words; binding and its absence hold for the method and conditions named. Binding seen in cells or lysates may run through a third protein. Here binding means that the protein was enriched with, or labelled near, the bait; the list need not be complete. Each block holds one binder with its values, some of them ahead of it.
